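Uptake of anthrax lethal toxin into cultured cells, read by FRET (460/530 nm ratio) and reported from the 460 nm channel; the cell line is not named here. Each compound was tested as a concentration series from about 0.0005 to 40 µM. The number is the fitted AC50 of the 460 nm signal alone; lower values mean a more potent effect. A falling signal goes with compounds filed as inhibitors or cytotoxic, a rising one with activators or fluorescent compounds (inferred from the filed classes).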

Values are in µM. Common to all entries: measured here: 460 nm channel. Part of the compounds only, not a random draw; the main read-out is not listed here. Potencies fitted to partial, single-point or poorly fitting curves are rough. The first word of each remark tells which way the curve ran; it can be opposite to the aim of the assay.

For COc1ccc(Cc2nnc(SC)[nH]c2=O)cc1OC the result was AC50 0.003981 µM (falling, full curve, poor fit).
For c1csc(-c2nn3c(Cn4cnc5ccccc54)nnc3s2)c1 the result was AC50 5.012 µM (rising, single point).
For COc1ccc(-c2nc3cnc(Oc4ccccc4)nc3n(CCC#N)c2=O)cc1 the result was AC50 15.85 µM (rising, partial curve).
For CCN(CC)S(=O)(=O)c1ccc(NC2c3ccccc3C(=O)N2Cc2ccc3c(c2)OCO3)cc1 (stereo not drawn) the result was AC50 31.62 µM (falling, single point).
For Cc1ccccc1-c1nnc(SCc2ccccc2)o1 the result was AC50 0.1259 µM (falling, full curve).
For N[C@H](Cc1ccc(Cl)cc1)C(=O)O the result was AC50 1.585 µM (rising, single point).
For Cc1ccc(OCc2nc(C#N)c(NCc3ccc4c(c3)OCO4)o2)cc1 the result was AC50 10 µM (falling, single point).
For CN1CCC(n2[nH]c(-c3ccccc3)c(Cc3ccccc3)c2=O)CC1 the result was AC50 3.981 µM (falling, partial curve).
For O=C(Nc1ccccc1N1CCN(C(=O)c2ccc(Cl)cc2)CC1)c1ccc2c(c1)OCO2 the result was AC50 0.631 µM (rising, full curve).
For C[C@@]12CC[C@H]3[C@@H](CC[C@]4(O)C[C@H](O)CC[C@@]34C=O)[C@]1(O)CC[C@@H]2C1=CC(=O)OC1 the result was AC50 1.995 µM (falling, full curve, poor fit).
For O=C(Cc1cn2ccsc2n1)Nc1nc2c(s1)CN(Cc1ccccc1)CC2 the result was AC50 5.012 µM (rising, single point).
For C=C1C(=O)C=C2CN(C(=O)c3ccccc3)[C@@](Cc3ccc(OC)cc3)(C(=O)OC)[C@@H]12 the result was AC50 3.981 µM (falling, full curve).
For COc1ccc2nc(Nc3nc(C)c(C(C)=O)s3)sc2c1 the result was AC50 6.31 µM (rising, partial curve).
For COc1cccc(Cn2c(=O)c(C)nc3cnc(N4CCNCC4)nc32)c1 the result was AC50 10 µM (rising, single point).
For c1ccc(CN2CCCC3(CCNCC3)C2)cc1 the result was AC50 3.162 µM (falling, full curve).
For COc1cc2c(cc1NC(=O)CC1SC(N3CCCC3)=NC1=O)oc1ccccc12 (stereo not drawn) the result was AC50 19.95 µM (rising, partial curve).
For CCCC(=O)Nc1ccc(C(=O)NCC(=O)OCC)cc1 the result was AC50 12.59 µM (falling, partial curve).
For Cc1cc(N2CCN(S(=O)(=O)c3ccc(Cl)cc3)CC2)c2ccccc2n1 the result was AC50 12.59 µM (falling, partial curve).
For C=CCN=C1SC(C)C(=O)N1S(=O)(=O)c1ccccc1 (stereo not drawn) the result was AC50 0.007943 µM (falling, full curve, poor fit).
For CCOC(=O)C1C(=O)NC(SCC(=O)OC)=C(C#N)C1c1ccccc1OCC (stereo not drawn) the result was AC50 12.59 µM (falling, partial curve, poor fit).
For COc1ccc(C(=O)N2CCC3(CC2)CN(c2ccc(-c4ccccc4)cc2)C3)cc1 the result was AC50 12.59 µM (rising, partial curve).
For O=C(O)c1ccc2c(c1)C(=O)N(C(Cc1ccccc1)C(=O)O)C2=O (stereo not drawn) the result was AC50 2.512 µM (rising, single point).
For CCCCCCOc1ccc(CN2CCN(C)CC2)cc1 the result was AC50 0.7943 µM (falling, partial curve).
For CC1CCCCN1C(=O)Cn1nnc(-c2cccnc2)n1 (stereo not drawn) the result was AC50 15.85 µM (rising, partial curve).
For COC(=O)[C@@]1(Cc2ccccc2)[C@H]2c3cc(C(=O)N4CCCC4)n(CCO)c3C[C@H]2CN1C(=O)c1ccccc1 the result was AC50 3.981 µM (falling, partial curve, poor fit).
For COc1cccc(Cn2c(=O)c(-c3cccs3)nc3cnc(N4CCOCC4)nc32)c1 the result was AC50 6.31 µM (rising, partial curve).
For CCCN1CCN(CCCNC(=O)c2cc3c(=O)n(C)c4ccccc4c3n2C)CC1 the result was AC50 10 µM (falling, partial curve).
For CCCCn1c(NC(=O)CC)c(C#N)c2nc3ccccc3nc21 the result was AC50 10 µM (rising, partial curve).
For CCOc1ccc2nc(NCCNC(=O)Nc3cccc(C)c3)c(C#N)cc2c1 the result was AC50 6.31 µM (rising, partial curve).
For O=C(Nc1nc2c(ccc3ccccc32)s1)c1ccco1 the result was AC50 12.59 µM (falling, single point).
For COc1ccccc1Oc1coc2cc(OC(=O)N3CCOCC3)ccc2c1=O the result was AC50 0.631 µM (falling, full curve).
For COc1ccc(NC(=O)c2cc3ccccn3n2)cc1 the result was AC50 3.162 µM (falling, single point).

4 of the entries, repeated:

compound	AC50 (µM)	remark
CCN(CC)S(=O)(=O)c1ccc(NC2c3ccccc3C(=O)N2Cc2ccc3c(c2)OCO3)cc1 (stereo not drawn)	31.62	falling, single point
Cc1cc(N2CCN(S(=O)(=O)c3ccc(Cl)cc3)CC2)c2ccccc2n1	12.59	falling, partial curve
C=CCN=C1SC(C)C(=O)N1S(=O)(=O)c1ccccc1 (stereo not drawn)	0.007943	falling, full curve, poor fit
COc1ccc(C(=O)N2CCC3(CC2)CN(c2ccc(-c4ccccc4)cc2)C3)cc1	12.59	rising, partial curve

Data taken from PubChem BioAssay AID912, deposited by NCATS (2007).